Reference: patent US7084239B1, “Cancer peptides of NY-ESO-1/CAG-3” (The United States of America as represented by the …, priority 1997, dated 2006)
Some results were stated once for a whole list of compounds, not compound by compound.

Test system: CTL clone 5
Test: GM-CSF release by CTL clone 5 on peptide-pulsed EBV B cells
Assay type: cell-based, human
Settings: peptide titration on EBV B cells
Experimental: DNA transfection and GM-CSF assay were done as previously described (Wang, R. F., P. F. Robbins, Y. Kawakami, X. Q. Kang, and S. A. Rosenberg, 1995, J. Exp. Med. 181:799–804). Briefly, […] of DNA carrying a different fragment and 50 ng of the HLA-A31 DNA were mixed with 2 μl of lipofectamine in 100 μl of serum-free DMEM for 15–45 min. The DNA/lipofectamine mixture was then added to the COS-7 (5×10^4) cells and incubated overnight. The following day, cells were washed twice with DMEM medium. TIL586, CTL clone 5 or CTL clone 10 were added at a concentration of 5×10^4 cells/well in AIM-V medium containing 120 IU/ml of IL-2. After 18–24 h incubation, 100 μl of supernatant was collected and GM-CSF was measured in a standard ELISA assay (R+D Systems, Minneapolis, Minn.). For peptides, 586EBV, 1510EBV and T2 cells were incubated with peptides at 37° C. for 90 min, and then washed three times with AIM-V medium containing 120 IU/ml of IL-2. T cells were added and incubated for additional 18–24 h, 100 μl of supernatant was collected for GM-CSF assay. In some experiments, IFN-γ release assays were done using a standard ELISA kit (Endogen, Woburn, Mass.).
These peptides were pulsed onto HLA-A31-positive 1510EBV B cells and tested for their ability to stimulate cytokine release by CTL clone 5. […] CTL clone 10 recognized the same peptide as CTL clone 5 (data not shown). […]

How did the “Peptide concentration at which CTL clone 5 reactivity is detectable” value turn out when “SGPGGGAPR (listed as Homo sapiens) [ESO9-54]” was run?
The value was ≥ 100 nM.
